Article PMC4161320
No constants are given. Whether binding was seen depends on the method and setting. Binding seen in cells or lysates may run through a third protein. Binding calls can cover weak binding; strength is not graded here.

Key:
Assay in all cases: co-IP; tagged proteins co-expressed in S2 cells; lysis in 25 mM Tris pH 8, 150 mM NaCl, 5% glycerol, 1% triton at 4°C; IP with rabbit anti-GFP (Venus-Unk) or rabbit anti-FLAG, Protein G agarose; immunoblot with anti-GFP and anti-FLAG M2
[1] = molecular target: T1, Venus-Unk (Drosophila) (UniProt Q86B79)
T1 sequence: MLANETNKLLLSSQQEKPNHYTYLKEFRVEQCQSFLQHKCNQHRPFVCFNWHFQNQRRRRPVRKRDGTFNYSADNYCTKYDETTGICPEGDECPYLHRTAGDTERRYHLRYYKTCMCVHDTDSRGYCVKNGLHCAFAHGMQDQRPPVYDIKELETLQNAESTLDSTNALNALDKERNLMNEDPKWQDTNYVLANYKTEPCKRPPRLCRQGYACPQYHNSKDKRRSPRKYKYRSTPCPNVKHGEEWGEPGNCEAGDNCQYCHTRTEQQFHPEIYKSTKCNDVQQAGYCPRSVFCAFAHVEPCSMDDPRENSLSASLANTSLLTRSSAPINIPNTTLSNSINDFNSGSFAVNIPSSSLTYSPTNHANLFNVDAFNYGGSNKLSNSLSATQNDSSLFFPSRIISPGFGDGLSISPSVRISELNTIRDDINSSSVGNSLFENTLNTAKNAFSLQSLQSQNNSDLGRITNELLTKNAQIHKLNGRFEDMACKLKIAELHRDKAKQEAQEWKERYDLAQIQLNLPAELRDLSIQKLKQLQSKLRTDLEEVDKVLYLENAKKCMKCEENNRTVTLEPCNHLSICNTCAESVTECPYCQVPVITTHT

[2] = molecular target: FLAG-HdcS (Drosophila) (UniProt Q9N2M8)
[3] = molecular target: FLAG-D-Pax2 (Drosophila)

In the case of FLAG-HdcS (from UniProt Q9N2M8), the binding [1] is reported as “binds”.

B1: Venus-Unk (protein, UniProt Q86B79 1-599)
chain: MLANETNKLLLSSQQEKPNHYTYLKEFRVEQCQSFLQHKCNQHRPFVCFNWHFQNQRRRRPVRKRDGTFNYSADNYCTKYDETTGICPEGDECPYLHRTAGDTERRYHLRYYKTCMCVHDTDSRGYCVKNGLHCAFAHGMQDQRPPVYDIKELETLQNAESTLDSTNALNALDKERNLMNEDPKWQDTNYVLANYKTEPCKRPPRLCRQGYACPQYHNSKDKRRSPRKYKYRSTPCPNVKHGEEWGEPGNCEAGDNCQYCHTRTEQQFHPEIYKSTKCNDVQQAGYCPRSVFCAFAHVEPCSMDDPRENSLSASLANTSLLTRSSAPINIPNTTLSNSINDFNSGSFAVNIPSSSLTYSPTNHANLFNVDAFNYGGSNKLSNSLSATQNDSSLFFPSRIISPGFGDGLSISPSVRISELNTIRDDINSSSVGNSLFENTLNTAKNAFSLQSLQSQNNSDLGRITNELLTKNAQIHKLNGRFEDMACKLKIAELHRDKAKQEAQEWKERYDLAQIQLNLPAELRDLSIQKLKQLQSKLRTDLEEVDKVLYLENAKKCMKCEENNRTVTLEPCNHLSICNTCAESVTECPYCQVPVITTHT
In the case of B1, the binding [2] is reported as “binds” and the binding [3] is reported as “binds”.
